From ChEMBL document CHEMBL3988442, “University of Dundee, Small-Polar-MMV Screening Library” (2021).

By UniProt entry, the sequences of proteins in these tests, tags left out. Residues count along the entry.
UniProt Q4DA54, 1-478: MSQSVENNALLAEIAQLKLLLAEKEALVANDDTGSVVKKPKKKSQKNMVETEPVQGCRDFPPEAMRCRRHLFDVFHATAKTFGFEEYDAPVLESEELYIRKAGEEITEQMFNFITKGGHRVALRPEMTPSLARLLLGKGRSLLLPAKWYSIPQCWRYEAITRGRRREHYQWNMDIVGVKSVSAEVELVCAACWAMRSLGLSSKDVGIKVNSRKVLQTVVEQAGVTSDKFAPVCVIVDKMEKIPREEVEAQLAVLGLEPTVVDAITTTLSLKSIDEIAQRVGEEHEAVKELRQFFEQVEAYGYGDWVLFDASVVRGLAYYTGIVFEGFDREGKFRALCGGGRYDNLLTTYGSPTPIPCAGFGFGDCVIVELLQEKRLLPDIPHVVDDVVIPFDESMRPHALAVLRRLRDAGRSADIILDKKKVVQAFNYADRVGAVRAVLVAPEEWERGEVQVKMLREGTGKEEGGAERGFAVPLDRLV
UniProt A4I591, 1-473: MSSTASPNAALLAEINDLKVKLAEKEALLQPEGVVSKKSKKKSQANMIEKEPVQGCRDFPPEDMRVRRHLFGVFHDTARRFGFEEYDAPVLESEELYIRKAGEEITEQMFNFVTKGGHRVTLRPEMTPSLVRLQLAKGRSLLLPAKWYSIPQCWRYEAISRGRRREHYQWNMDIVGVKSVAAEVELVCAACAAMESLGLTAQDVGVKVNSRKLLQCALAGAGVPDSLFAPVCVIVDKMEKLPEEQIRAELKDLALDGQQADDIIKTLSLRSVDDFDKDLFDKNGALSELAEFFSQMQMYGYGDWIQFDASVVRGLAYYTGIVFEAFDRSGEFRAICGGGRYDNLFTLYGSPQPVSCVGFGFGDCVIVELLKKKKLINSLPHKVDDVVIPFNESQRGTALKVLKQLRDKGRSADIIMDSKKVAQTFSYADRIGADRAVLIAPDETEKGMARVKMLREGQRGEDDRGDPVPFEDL
UniProt P9WPC5, whole entry: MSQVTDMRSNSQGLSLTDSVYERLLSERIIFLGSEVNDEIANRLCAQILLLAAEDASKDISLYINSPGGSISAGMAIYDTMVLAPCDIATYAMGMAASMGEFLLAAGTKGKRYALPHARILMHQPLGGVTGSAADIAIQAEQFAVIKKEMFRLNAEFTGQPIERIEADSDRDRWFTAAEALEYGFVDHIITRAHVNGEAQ
UniProt P9WPC3, whole entry partner: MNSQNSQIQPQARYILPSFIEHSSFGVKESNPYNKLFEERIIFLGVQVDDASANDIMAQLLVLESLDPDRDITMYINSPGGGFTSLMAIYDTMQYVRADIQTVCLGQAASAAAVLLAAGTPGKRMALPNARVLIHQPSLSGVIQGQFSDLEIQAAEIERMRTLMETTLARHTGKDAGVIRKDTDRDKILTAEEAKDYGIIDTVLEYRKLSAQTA

Toxoplasma: 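Assay of Toxoplasma gondii numbers, read through their beta-galactosidase reporter with a colour substrate. Tested at 10 µM. The record gives no direction; the compounds picked for IC50 retests had high values, so higher reads as fewer parasites. Size under these conditions: about 67,000 compounds, about 260 of them at 50% or above in at least one test.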
Leishmania in macrophages: 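Cell assay of Leishmania donovani living inside macrophages; the read-out is not stated. Compounds at 30 µM. Higher reads as stronger inhibition (inferred: compounds with an IC50 in retests scored well above the rest). Size under these conditions: about 69,000 compounds, about 1,000 of them at 50% or above in at least one test.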
TcHisRS: 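Enzyme assay of histidyl-tRNA synthetase; the read-out is not stated. Target: Histidine-tRNA ligase, Trypanosoma cruzi CL Brener (UniProt Q4DA54). Compounds at 30 µM. Higher reads as stronger inhibition (inferred: compounds with an IC50 in retests scored well above the rest). About 69,000 compounds were tested under these conditions; 0.045% (about 31) showed 50% or more at least once.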
LiHisRS: 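Histidine-tRNA ligase, Leishmania infantum (UniProt A4I591). Enzyme assay of histidyl-tRNA synthetase; the read-out is not stated. Compounds at 30 µM. Direction is inferred from retests: higher values go with stronger inhibition. The assay is labelled LdHisRS but filed under L. infantum. Of about 69,000 compounds tested this way, about 410 (0.6%) reached 50% or more in at least one test.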
ClpP1P2: 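ClpP1P2, Mycobacterium tuberculosis (UniProt P9WPC5 and UniProt P9WPC3). Protease assay of ClpP1P2, read by the AMC dye that it sets free. Compounds at 50 µM. Higher reads as stronger inhibition, judged from the few compounds that gave an IC50. Most other retested compounds had strongly negative values. Size under these conditions: about 69,000 compounds, about 10 of them at 50% or above in at least one test.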
T. brucei: 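Whole-parasite assay of Trypanosoma brucei over 72 hours; the read-out is not stated. Concentration: 30 µM. Higher reads as stronger inhibition (inferred: compounds with an IC50 in retests scored well above the rest). Values scatter widely below zero; nearly all retest evidence comes from the higher of the two concentrations used. About 64,000 compounds were tested under these conditions; 1.5% (about 940) showed 50% or more at least once.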

Results are given as percent effect. The controls that fix the scale are not given in the record; negative values are as filed. The compounds are a random part of those screened. Two or more numbers in one place are separate tests of the same structure; such repeats can differ widely. A dash means the value is not listed here; it may have been measured.

structure,Toxoplasma,Leishmania in macrophages,TcHisRS,LiHisRS,ClpP1P2,T. brucei
CCN1CCC(CNC(=O)c2cc(Cl)c[nH]2)CC1,2.712,6.372,15.84,14.29,9.982,-13.75
Cc1ncc(CN2CCOC(c3ccc(-c4cnn(C)c4)cn3)C2)s1 (stereo not given),-14.87,8.424 & -1.408,5.224,-5.263,-6.554,-5.677
CSCC(=O)Nc1ncc(I)cc1C,-2.801,-14.09,0,-2.74,-6.747,-42.4
[H][C@]12C[C@@H](Cn3cncn3)N(C(C)=O)[C@@]1([H])CCN(c1ccc(C)nn1)C2,8.02,18.73,-,-,-,-16.04
COc1cc(N2CCN(CC3CC3)c3nc(C)ccc3C2)ncn1,-30.86,11.21,5.528,21.78,-4.349,9.344
COCc1n[nH]/c(=N/C(=O)COc2cnc(C)cc2O)s1,0.9553,-6.34,-1.087,11.43,-6.644,-14.98
Cc1cc(C2CCCN2C(=O)Nc2cn[nH]c2)on1 (stereo not given),12.29,4.351,7.216,10.34,2.967,-22.1
CNc1cncc(C2CCCN2S(=O)(=O)c2cccc(F)c2)n1 (stereo not given),-5.211,-2.41 & 9.668,5.224,24.21,-20.52,-13.27
CCOc1ccc(C(=O)N2CCC(Oc3ccccc3)(C(=O)O)CC2)o1,-38.75,-1.952,5.063,-2.083,-15.37,-20.96
Cc1cc(C)n(CC2CCCN2C(=O)Cc2c(C)nn(C)c2C)n1 (stereo not given),9.163,2.154,3.198,9.649,-21.16,-15.94
Cc1cccc(CN2CC[C@@H]3[C@@H]2CCN3C(=O)c2cc(C)oc2C)n1,-,-,12.2,25.64,16.13,-
Cc1cccc(C(=O)N2CCn3c(CN4CCN(C)CC4)cnc3C2)n1,-37.25,11.37,2.956,5.882,-6.437,-1.988
CC(C)(C)[S+]([O-])CCNC(=O)c1cccc2ncccc12 (stereo not given),-15.37,-4.1,8.046,10.26,3.727,-
Cc1c(Br)c(C(=O)NC(C)c2ccccc2)nn1C (stereo not given),21.25,18.97,9.845,10.75,6.707,-4.451
O=C(O)C(F)(F)F.[H][C@@]12CO[C@H](CNS(C)(=O)=O)[C@]1([H])CCN(CCc1ccccc1)C2,5.962,12.58,-,-,-,-45.22
Cc1nn(C)c(Cl)c1C1CCCN1C(=O)c1ccc2c(c1)COC2 (stereo not given),-15.95,19.14,4.07,12.5,-11.81,4.907
COCC(O)CNC(=O)Nc1c(F)cc(F)cc1-c1ccccc1 (stereo not given),11.91,-17.97,7,17.39,-19.69,-5.318
CSCC(=O)N[C@H]1CC[C@H](Nc2nccc(-c3cccnc3)n2)C1,2.77,-2.653 & 21.19,14.46,20.51,-4.673,-21.24
CCOCCOc1ccccc1C(=O)N1CCCC(c2ncc[nH]2)C1 (stereo not given),1.861,30.25,3.306,17.31,8.101,-81.01
O=C(COc1ccccc1)N1C[C@@H]2COC[C@]2(COc2cccnc2)C1,-,-,3.175,13.64,-2.931,-
O=C(O)C(F)(F)F.O=C(O)C(F)(F)F.O=C(O)C(F)(F)F.[H][C@@]12C[C@@H](Oc3cncnc3)CN1CCN(Cc1ccncc1)C2,-3.682,30.84,-,-,-,-90.51
CN(CCc1ccccc1)Cc1c(C2CCNCC2)[nH]c2ncccc12,-,-,7.345,9.79,-2.586,-
[H][C@@]12CS(=O)(=O)C[C@]1([H])N(C(=O)c1ccc(COC)o1)CCN2CCOC,-1.479,-1.869,-,-,-,-5.017
CCc1ccc(-c2noc(Cn3nc(C(N)=O)ccc3=O)n2)cc1,7.643,-21.06,0.8696,10,0.3778,-46.36
CCN1C(=O)CC[C@]12CC[C@@H](NC(=O)NCc1cccnc1)CC2,-,-,0,0.9009,-10.17,-
CCc1nc(N)nc(N2CCCC3(CCOCC3)C2)c1C,1.352,21.27,1.093,7.018,-15.28,-88.91
COc1ccc(CC(=O)N2CCCC2Cn2cc(C)cn2)c(OC)c1 (stereo not given),13.25,1.116,4.373,7.965,-26.02,-
COc1ccc(CN2CC[C@@H]3CN(S(C)(=O)=O)CCO[C@@H]3C2)cc1,-,-,5.376,14.04,-8.504,-
O=c1[nH]c2ccccc2c(=O)n1Cc1nnnn1C1CC1,-1.634,-6.568,6.494,2.857,-3.793,-69.41
Cc1cc(CN2C[C@@H](N3CCN(C)CC3)[C@H]3OCCC[C@H]32)oc1C,-,-,9.783,30.26,-10.27,-
CN1CCC2(COCc3cnc(-c4ccccc4)nc32)C1 (stereo not given),-,-,2.97,20.55,6.679,-
COc1cccc(CC(=O)N2CCCC2c2nc(C)c(F)c(O)n2)c1 (stereo not given),-4.169,-0.02144 & -2.66,1.493,-5.263,-6.594,-32.3
CC(Cn1cncn1)NC1CCN(Cc2cccc(O)c2)CC1 (stereo not given),12.19,35.17,8.939,8.333,-6.196,4.861
Cc1cnn(CC2CN(Cc3nccn3CC(F)(F)F)CCO2)c1 (stereo not given),-46.54,3.811,1.69,9.565,10.06,-8.381
O=C(c1cc(COc2ccc3c(c2)OCO3)[nH]n1)N1CCCO1,-1.438,26.1,6.122,12.9,-16.38,-31.6
Cc1nc(C(=O)N2CCN(C(=O)C3CCC3)[C@@H]3CS(=O)(=O)C[C@@H]32)cs1,-,-,2.717,2.667,18.12,-
Cc1cccc(CN2C[C@@H]3COC[C@]3(CNC(=O)c3ccsc3)C2)n1,-,-,-1.639,23.53,5.882,-
CC(C)C(C)NC(=O)CCN1C(=O)CCc2cc(F)ccc21 (stereo not given),22.05,9.057,11.22,2.857,-3.287,-50.79
Cc1cccc2c1nc1n2[C@@H](CNC(=O)c2ccccn2)COC1,3.482,19.22,2.174,20.27,-6.522,-5.609
O=S(=O)(C1CC1)N1CC[C@@H](OCC2CC2)[C@@H]1Cc1ccncc1,-,-,2.299,10.53,-2.678,-
CCN1CC(C(=O)NCc2noc(Cc3ccccc3)n2)CCC1=O (stereo not given),-16.08,-11.48,-4.831,9.167,-22.07,-
O=C(O)C(F)(F)F.O=S(=O)(C1CC1)N1CCOCC2(CCN(c3ccccn3)C2)C1 (stereo not given),-7.77,-13.08,-,-,-,-30.02
CC(Cn1cccn1)NC(=O)NCc1ccc(C(N)=O)cc1 (stereo not given),-2.544,16.08,6.122,16.81,-47.62,-
CC(C(=O)N(Cc1ccccc1)CC(F)(F)F)S(C)(=O)=O (stereo not given),-2.743,-9.918,9.524,16.44,-0.6357,8.628
CC(C)(C)OC(=O)NCC1CCCCN1Cc1ccncc1 (stereo not given),5.043,5.576,2.326,16.39,15.46,-22.5
COC(=O)c1cc2c(=O)n(C3CC3)ccc2nc1C,5.705,0.9894,1.754,5.263,7.441,-13.53
C[C@@H]1CN(C(=O)c2cc(COc3ccc4c(c3)OCO4)[nH]n2)C[C@H](C)O1,9.264,-10.49,2.041,16.13,-11.89,-29.57
CN(CC(=O)NC(C)(C)C)C(=O)c1cccn1CCc1ccccc1,-13.53,-5.306,9.639,12,8.353,-43.58
CC(C)(O)CCc1cccc(C(=O)N2Cc3cnn(CCO)c3C2)c1,12,10.99,3.077,8.163,-1.261,-3.927
CC(C)(C)CNC(=O)c1ccc(C(=O)O)cn1,17.63,-11.9,10.88,19.1,-0.9019,-42.1
Cc1noc(NCc2cc(F)ccc2F)n1,14.97,26.04,6.667,9.524,-4.905,50.55
CNC(=O)COC1COC2(CCN(c3ncccn3)CC2)C1.O=C(O)C(F)(F)F (stereo not given),1.449,19.32 & 11.67,-,-,-,-37.1
Cc1csc(NC(=O)NCCCN2CCC(C(N)=O)CC2)n1,12.05,48.89,6.468,-3.614,0.519,-12.22

4 of the entries, repeated:

structure,Toxoplasma,Leishmania in macrophages,TcHisRS,LiHisRS,ClpP1P2,T. brucei
Cc1ncc(CN2CCOC(c3ccc(-c4cnn(C)c4)cn3)C2)s1 (stereo not given),-14.87,8.424 & -1.408,5.224,-5.263,-6.554,-5.677
Cc1cc(C)n(CC2CCCN2C(=O)Cc2c(C)nn(C)c2C)n1 (stereo not given),9.163,2.154,3.198,9.649,-21.16,-15.94
CC(C)(O)CCc1cccc(C(=O)N2Cc3cnn(CCO)c3C2)c1,12,10.99,3.077,8.163,-1.261,-3.927
CC(C)C(C)NC(=O)CCN1C(=O)CCc2cc(F)ccc21 (stereo not given),22.05,9.057,11.22,2.857,-3.287,-50.79